Reference: PubChem BioAssay AID248 (DTP/NCI, 2004)
The list does not hold the whole screen: it is rich in T/C values a quarter to a half above the control, in often repeated tests (any T/C) and in doses without a T/C. Other doses and runs of a compound stand elsewhere. T/C gives the treated animals as a percentage of the vehicle group. Some doses have a count of surviving animals in place of a T/C: the source holds a T/C of zero for them, seemingly a mark for toxic or unscored doses. Some survivor counts are full or nearly so, which does not show that the dose was tolerated: survival well below the control is almost never listed, so the zero probably covers shortened survival too. Survivors were counted at the toxicity check, usually on the fifth day, unless a day is given; later deaths do not show. Schedules are NCI's codes, taken here to give the interval after Q, in days (D) or hours (H), and the number of doses after X. Some schedules carry Z or #; the key to these is not given. Some entries hold several experiments; their values stand side by side, smallest first. Where survival is the endpoint, this PubChem deposit counts one and a half times the control or more as active, and values a quarter to a half above the control carry no call in these data; other NCI protocols may use other cut-offs. Some T/C values are followed by the survivors on the day toxicity was checked, most often the fifth; without a count, all were alive then.

Test system: L1210 leukemia ip in BDF1 mice, survival T/C
Assay: NCI In Vivo Anticancer Drug Screen. Data for tumor model L1210 Leukemia (intraperitoneal) in B6D2F1 (BDF1) mice
Conditions: T/C endpoint: mean survival time, higher T/C = longer survival
[1] = dose: 400.0 mg/kg/injection, schedule: Q04DX002 (ip), vehicle: saline with Tween-80
[2] = dose: 400.0 mg/kg/injection, schedule: Q04DX003 (ip), vehicle: saline with Tween-80
[3] = dose: 100.0 mg/kg/injection, schedule: Q04DX003 (ip), vehicle: saline with Tween-80
[4] = dose: 400.0 mg/kg/injection, schedule: Q01DX001 (ip), vehicle: saline

## COc1cc(/C=N\N=C(/C)c2ccc(C)cc2C)cc(OC)c1OC
[1]
  survivor count: 3 of 3

## CCCCOc1ccc(/C=N/NC(=O)Nc2ccccc2)cc1
dose: 200.0 mg/kg/injection, schedule: Q01DX009 (ip), vehicle: Klucel (hydroxypropylcellulose) (HPC)
  survivor count: 6 of 6

## CCN(C(=O)C(F)(F)F)C(C)(C)C(SSSC(c1ccc(Cl)cc1)C(C)(C)N(CC)C(=O)C(F)(F)F)c1ccc(Cl)cc1 (stereo unspecified)
dose: 200.0 mg/kg/injection, schedule: Q01DX009 (ip), vehicle: other
  survivor count: 0 of 6
dose: 400.0 mg/kg/injection, schedule: Q01DX009 (ip), vehicle: other
  survivor count: 0 of 6

## O=C(NCCCCNC(=O)Nc1cccc(C2=NCCN2)c1)Nc1cccc(C2=NCCN2)c1
dose: 92.0 mg/kg/injection, schedule: Q01DX Z (ip), vehicle: carboxymethylcellulose (CMC)
  survivor count: 6 of 6

## CCN(C(=O)Nc1ccc(Cl)cc1)c1ccccc1C
[2]
  survivor count: 5 of 6

## CC(=O)Nc1cc(C)cc(NC(C)=O)c1C
dose: 150.0 mg/kg/injection, schedule: Q01DX001 (ip), vehicle: carboxymethylcellulose (CMC)
  survivor count: 6 of 6

## Cc1cc(C)c(CCc2c(C)cc(C)cc2C)c(C)c1
[3]
  survivor count: 6 of 6

## CCCCc1cn(C(=O)CCCl)nn1
[1]
  survivor count: 0 of 3

## CC(C)OCCS(=O)(=O)Oc1ncc(Cl)cc1Cl
dose: 100.0 mg/kg/injection, schedule: Q01DX009 (ip), vehicle: saline with Tween-80
  survivor count: 6 of 6
dose: 200.0 mg/kg/injection, schedule: Q01DX009 (ip), vehicle: saline with Tween-80
  survivor count: 5 of 6

## CC(C)C(CCN1CCCC1)(C(N)=O)c1cccc2ccccc12 (stereo unspecified)
dose: 400.0 mg/kg/injection, schedule: Q04DX003 (ip), vehicle: Klucel (hydroxypropylcellulose) (HPC)
  survivor count: 4 of 6

## CCOC(=O)c1cnc(NN)nc1Nc1cc(Cl)cc(Cl)c1
[3]
  survivor count: 6 of 6
[2]
  survivor count: 3 of 6

## CCC[CH2][Sn]1([CH2]CCC)[O]C(=O)C[S]1
dose: 5.0 mg/kg/injection, schedule: Q01DX009 (ip), vehicle: acetone
  survivor count: 0 of 6
dose: 10.0 mg/kg/injection, schedule: Q01DX009 (ip), vehicle: acetone
  survivor count: 0 of 6
dose: 12.0 mg/kg/injection, schedule: Q01DX Z (ip), vehicle: saline
  survivor count: 2 of 6
dose: 12.5 mg/kg/injection, schedule: Q01DX001 (ip), vehicle: acetone
  survivor count: 0 of 6
dose: 25.0 mg/kg/injection, schedule: Q01DX001 (ip), vehicle: acetone
  survivor count: 0 of 6
dose: 25.0 mg/kg/injection, schedule: Q04DX002 (ip), vehicle: saline with Tween-80
  survivor count: 1 of 3
dose: 28.0 mg/kg/injection, schedule: Q04DX003 (ip), vehicle: saline with Tween-80
  survivor count: 0 of 6
dose: 44.0 mg/kg/injection, schedule: Q04DX003 (ip), vehicle: saline with Tween-80
  survivor count: 0 of 6
dose: 50.0 mg/kg/injection, schedule: Q01DX001 (ip), vehicle: acetone
  survivor count: 0 of 6
dose: 70.0 mg/kg/injection, schedule: Q04DX003 (ip), vehicle: saline with Tween-80
  survivor count: 0 of 6
dose: 100.0 mg/kg/injection, schedule: Q01DX001 (ip), vehicle: acetone
  survivor count: 0 of 6
dose: 200.0 mg/kg/injection, schedule: Q01DX001 (ip), vehicle: acetone
  survivor count: 0 of 6
dose: 200.0 mg/kg/injection, schedule: Q04DX002 (ip), vehicle: saline with Tween-80
  survivor count: 1 of 3
dose: 400.0 mg/kg/injection, schedule: Q01DX001 (ip), vehicle: acetone
  survivor count: 0 of 6
[1]
  survivor count: 0 of 3

## Nc1nc(N)c2c(n1)CN(Cc1ccccc1)C2
dose: 100.0 mg/kg/injection, schedule: Q01DX001 (ip), vehicle: carboxymethylcellulose (CMC)
  survivor count: 0 of 4 and 1 of 4
dose: 200.0 mg/kg/injection, schedule: Q01DX001 (ip), vehicle: carboxymethylcellulose (CMC)
  survivor count: 0 of 4
dose: 400.0 mg/kg/injection, schedule: Q01DX001 (ip), vehicle: carboxymethylcellulose (CMC)
  survivor count: 0 of 4

## C#CC(=O)C(CC)CCCC (stereo unspecified)
dose: 25.0 mg/kg/injection, schedule: Q01DX009 (ip), vehicle: saline with Tween-80
  survivor count: 3 of 6
dose: 75.0 mg/kg/injection, schedule: Q01DX009 (ip), vehicle: saline with Tween-80
  survivor count: 0 of 6
dose: 150.0 mg/kg/injection, schedule: Q01DX009 (ip), vehicle: saline with Tween-80
  survivor count: 0 of 6
dose: 300.0 mg/kg/injection, schedule: Q01DX009 (ip), vehicle: saline with Tween-80
  survivor count: 0 of 6

## O=C(Cn1ccccc1=O)c1ccccc1
dose: 200.0 mg/kg/injection, schedule: Q04DX003 (ip), vehicle: saline with Tween-80
  survivor count: 0 of 6

## CCn1c(COc2ccc(Cl)cc2Cl)c(COC(=O)c2cccc(Cl)c2)c2ccccc21
dose: 400.0 mg/kg/injection, schedule: Q01DX009 (ip), vehicle: carboxymethylcellulose (CMC)
  survivor count: 3 of 3

## Nc1cc(C(=O)Nc2ccc(CCNC3=NCCN3)cc2)ccc1C(=O)Nc1ccc(CCNC2=NCCN2)cc1
dose: 3.75 mg/kg/injection, schedule: Q01DX Z (ip), vehicle: water
  T/C: 146 % of control
dose: 15.0 mg/kg/injection, schedule: Q01DX Z (ip), vehicle: water
  T/C: 141 % of control [5 of 6 alive]
dose: 18.7 mg/kg/injection, schedule: Q01DX001 (ip), vehicle: water
  survivor count: 0 of 6
dose: 20.0 mg/kg/injection, schedule: Q01DX015 (ip), vehicle: water
  survivor count: 0 of 6
dose: 30.0 mg/kg/injection, schedule: Q01DX015 (ip), vehicle: water
  survivor count: 0 of 6
dose: 30.0 mg/kg/injection, schedule: Q01DX Z (ip), vehicle: water
  survivor count: 0 of 6
dose: 37.5 mg/kg/injection, schedule: Q01DX001 (ip), vehicle: water
  survivor count: 0 of 6
dose: 40.0 mg/kg/injection, schedule: Q01DX015 (ip), vehicle: water
  survivor count: 0 of 6
dose: 75.0 mg/kg/injection, schedule: Q01DX001 (ip), vehicle: water
  survivor count: 0 of 6
dose: 280.0 mg/kg/injection, schedule: Q01DX Z (oral), vehicle: water
  survivor count: 0 of 6
dose: 425.0 mg/kg/injection, schedule: Q01DX Z (oral), vehicle: water
  survivor count: 3 of 6

## COc1cc(-c2nc3ccccc3c(=O)o2)cc(OC)c1OC
dose: 400.0 mg/kg/injection, schedule: Q01DX009 (ip), vehicle: saline with Tween-80
  survivor count: 6 of 6

## O=c1ccccc(Br)c1O
dose: 400.0 mg/kg/injection, schedule: Q04DX003 (ip), vehicle: acetone
  survivor count: 0 of 6

## Cc1ccc(N2CCN(C(C)(C)C#N)CC2)cc1
[4]
  survivor count: 0 of 6

## CCOC(=O)c1cnc(SCc2ccccc2Cl)nc1N1CC1
dose: 42.5 mg/kg/injection, schedule: Q01DX009 (ip), vehicle: saline with Tween-80
  T/C: 136 % of control
dose: 75.0 mg/kg/injection, schedule: Q04DX003 (ip), vehicle: saline
  T/C: 134 % of control [4 of 6 alive]
dose: 85.0 mg/kg/injection, schedule: Q01DX009 (ip), vehicle: saline with Tween-80
  survivor count: 4 of 6
dose: 100.0 mg/kg/injection, schedule: Q01DX001 (ip), vehicle: saline
  T/C: 128 % of control
dose: 170.0 mg/kg/injection, schedule: Q01DX009 (ip), vehicle: saline with Tween-80
  survivor count: 0 of 6
dose: 200.0 mg/kg/injection, schedule: Q01DX001 (ip), vehicle: saline
  survivor count: 0 of 6
dose: 255.0 mg/kg/injection, schedule: Q04DX003 (ip), vehicle: saline with Tween-80
  survivor count: 0 of 6
dose: 385.0 mg/kg/injection, schedule: Q04DX003 (ip), vehicle: saline with Tween-80
  survivor count: 0 of 6
[4]
  survivor count: 0 of 6

## CC/C(=N/N=C(N)N)c1ccc(NC(=O)Nc2ccc(/C(CC)=N/N=C(N)N)cc2)cc1
dose: 20.0 mg/kg/injection, schedule: Q01DX009 (ip), vehicle: saline
  survivor count: 6 of 6
dose: 40.0 mg/kg/injection, schedule: Q01DX009 (ip), vehicle: saline
  survivor count: 0 of 6
dose: 80.0 mg/kg/injection, schedule: Q01DX009 (ip), vehicle: saline
  survivor count: 0 of 6
dose: 160.0 mg/kg/injection, schedule: Q01DX009 (ip), vehicle: saline
  survivor count: 0 of 6
dose: 320.0 mg/kg/injection, schedule: Q01DX009 (ip), vehicle: saline
  survivor count: 0 of 6
